Measurements as given in the supplement of paper PMC10849652.
The other results are listed elsewhere or left out.

The chains behind the UniProt entries cited, without tags or fusion partners. Where a name states a change or a piece, a line headed by the entry shows the natural chain unless it says otherwise.
UniProt Q8N720: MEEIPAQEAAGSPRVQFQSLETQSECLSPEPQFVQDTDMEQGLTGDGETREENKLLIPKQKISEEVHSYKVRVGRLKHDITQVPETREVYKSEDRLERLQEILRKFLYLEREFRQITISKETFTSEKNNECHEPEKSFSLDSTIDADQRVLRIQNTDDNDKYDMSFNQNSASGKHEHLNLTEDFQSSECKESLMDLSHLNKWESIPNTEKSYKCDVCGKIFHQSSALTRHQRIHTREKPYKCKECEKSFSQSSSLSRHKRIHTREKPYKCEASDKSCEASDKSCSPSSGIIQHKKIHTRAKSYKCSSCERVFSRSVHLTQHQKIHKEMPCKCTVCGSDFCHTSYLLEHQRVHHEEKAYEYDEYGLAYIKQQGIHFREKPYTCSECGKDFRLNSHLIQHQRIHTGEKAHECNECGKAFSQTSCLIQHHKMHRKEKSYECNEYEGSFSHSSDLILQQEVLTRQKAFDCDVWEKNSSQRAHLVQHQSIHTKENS
UniProt Q86YH2: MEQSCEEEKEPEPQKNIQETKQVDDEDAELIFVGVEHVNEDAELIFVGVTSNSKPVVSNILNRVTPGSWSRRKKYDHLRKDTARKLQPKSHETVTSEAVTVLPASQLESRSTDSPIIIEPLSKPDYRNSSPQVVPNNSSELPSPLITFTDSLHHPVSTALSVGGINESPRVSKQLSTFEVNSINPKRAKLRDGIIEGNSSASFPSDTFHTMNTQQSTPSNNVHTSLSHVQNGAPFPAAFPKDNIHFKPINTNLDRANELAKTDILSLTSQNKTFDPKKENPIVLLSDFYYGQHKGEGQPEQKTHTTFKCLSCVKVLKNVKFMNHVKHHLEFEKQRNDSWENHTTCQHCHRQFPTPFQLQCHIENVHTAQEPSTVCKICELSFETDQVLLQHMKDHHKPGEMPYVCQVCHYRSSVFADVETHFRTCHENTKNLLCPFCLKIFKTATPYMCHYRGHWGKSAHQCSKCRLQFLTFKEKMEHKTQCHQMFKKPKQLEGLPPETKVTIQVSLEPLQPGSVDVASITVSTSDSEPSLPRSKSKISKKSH
UniProt P35789: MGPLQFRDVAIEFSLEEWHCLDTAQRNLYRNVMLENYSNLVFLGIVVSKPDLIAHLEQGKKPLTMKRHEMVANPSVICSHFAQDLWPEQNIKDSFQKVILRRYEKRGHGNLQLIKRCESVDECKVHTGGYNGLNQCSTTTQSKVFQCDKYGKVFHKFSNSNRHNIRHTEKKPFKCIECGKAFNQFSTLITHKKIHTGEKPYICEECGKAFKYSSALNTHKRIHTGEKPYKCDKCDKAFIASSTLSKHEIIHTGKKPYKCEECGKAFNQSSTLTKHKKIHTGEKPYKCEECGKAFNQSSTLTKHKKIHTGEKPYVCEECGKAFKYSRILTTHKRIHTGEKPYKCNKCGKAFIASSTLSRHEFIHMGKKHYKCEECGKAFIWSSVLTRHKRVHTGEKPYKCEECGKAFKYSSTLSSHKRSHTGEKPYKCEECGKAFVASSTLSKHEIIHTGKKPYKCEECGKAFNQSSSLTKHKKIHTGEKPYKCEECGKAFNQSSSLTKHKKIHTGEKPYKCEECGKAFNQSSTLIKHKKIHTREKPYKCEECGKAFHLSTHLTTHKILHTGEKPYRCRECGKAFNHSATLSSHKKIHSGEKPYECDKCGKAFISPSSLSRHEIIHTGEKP
UniProt Q969J2: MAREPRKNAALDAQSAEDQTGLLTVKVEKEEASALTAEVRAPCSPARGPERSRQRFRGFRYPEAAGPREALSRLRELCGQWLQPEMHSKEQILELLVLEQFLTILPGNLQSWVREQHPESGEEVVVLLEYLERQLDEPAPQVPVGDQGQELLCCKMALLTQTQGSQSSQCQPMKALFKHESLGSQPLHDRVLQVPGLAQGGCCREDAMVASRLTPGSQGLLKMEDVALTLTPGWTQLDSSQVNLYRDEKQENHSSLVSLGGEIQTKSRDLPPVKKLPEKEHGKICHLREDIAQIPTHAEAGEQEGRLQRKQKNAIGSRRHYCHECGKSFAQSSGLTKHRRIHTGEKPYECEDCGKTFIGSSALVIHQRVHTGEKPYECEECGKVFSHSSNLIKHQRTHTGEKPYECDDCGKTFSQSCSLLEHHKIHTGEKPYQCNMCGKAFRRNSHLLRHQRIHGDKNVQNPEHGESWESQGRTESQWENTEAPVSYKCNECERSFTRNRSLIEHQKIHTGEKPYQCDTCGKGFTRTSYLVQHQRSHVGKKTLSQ
UniProt O43257, whole entry, looked up: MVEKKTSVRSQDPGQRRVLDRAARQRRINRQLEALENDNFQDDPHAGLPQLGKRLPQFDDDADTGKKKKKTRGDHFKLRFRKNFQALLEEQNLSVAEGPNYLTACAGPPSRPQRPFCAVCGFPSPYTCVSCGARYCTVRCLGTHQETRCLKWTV
UniProt Q7L945: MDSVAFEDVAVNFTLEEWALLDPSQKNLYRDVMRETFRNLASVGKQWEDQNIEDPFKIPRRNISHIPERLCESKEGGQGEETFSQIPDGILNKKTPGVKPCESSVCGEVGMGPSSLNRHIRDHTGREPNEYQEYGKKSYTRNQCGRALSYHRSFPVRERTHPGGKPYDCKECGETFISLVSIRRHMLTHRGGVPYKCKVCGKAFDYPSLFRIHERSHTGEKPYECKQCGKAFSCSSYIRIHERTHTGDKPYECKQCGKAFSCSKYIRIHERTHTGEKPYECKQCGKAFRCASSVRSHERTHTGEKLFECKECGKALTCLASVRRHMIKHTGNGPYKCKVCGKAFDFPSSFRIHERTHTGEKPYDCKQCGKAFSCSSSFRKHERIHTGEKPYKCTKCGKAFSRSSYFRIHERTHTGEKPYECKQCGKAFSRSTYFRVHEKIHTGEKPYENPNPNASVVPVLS
UniProt Q7L3S4: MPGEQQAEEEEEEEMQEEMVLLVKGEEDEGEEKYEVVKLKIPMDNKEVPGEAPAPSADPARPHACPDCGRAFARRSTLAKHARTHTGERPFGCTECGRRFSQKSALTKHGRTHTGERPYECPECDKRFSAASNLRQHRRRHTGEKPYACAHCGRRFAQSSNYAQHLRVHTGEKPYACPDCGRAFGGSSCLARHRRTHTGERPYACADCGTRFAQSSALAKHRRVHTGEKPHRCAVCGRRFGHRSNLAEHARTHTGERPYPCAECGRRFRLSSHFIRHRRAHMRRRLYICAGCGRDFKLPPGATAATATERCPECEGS
UniProt Q6N043: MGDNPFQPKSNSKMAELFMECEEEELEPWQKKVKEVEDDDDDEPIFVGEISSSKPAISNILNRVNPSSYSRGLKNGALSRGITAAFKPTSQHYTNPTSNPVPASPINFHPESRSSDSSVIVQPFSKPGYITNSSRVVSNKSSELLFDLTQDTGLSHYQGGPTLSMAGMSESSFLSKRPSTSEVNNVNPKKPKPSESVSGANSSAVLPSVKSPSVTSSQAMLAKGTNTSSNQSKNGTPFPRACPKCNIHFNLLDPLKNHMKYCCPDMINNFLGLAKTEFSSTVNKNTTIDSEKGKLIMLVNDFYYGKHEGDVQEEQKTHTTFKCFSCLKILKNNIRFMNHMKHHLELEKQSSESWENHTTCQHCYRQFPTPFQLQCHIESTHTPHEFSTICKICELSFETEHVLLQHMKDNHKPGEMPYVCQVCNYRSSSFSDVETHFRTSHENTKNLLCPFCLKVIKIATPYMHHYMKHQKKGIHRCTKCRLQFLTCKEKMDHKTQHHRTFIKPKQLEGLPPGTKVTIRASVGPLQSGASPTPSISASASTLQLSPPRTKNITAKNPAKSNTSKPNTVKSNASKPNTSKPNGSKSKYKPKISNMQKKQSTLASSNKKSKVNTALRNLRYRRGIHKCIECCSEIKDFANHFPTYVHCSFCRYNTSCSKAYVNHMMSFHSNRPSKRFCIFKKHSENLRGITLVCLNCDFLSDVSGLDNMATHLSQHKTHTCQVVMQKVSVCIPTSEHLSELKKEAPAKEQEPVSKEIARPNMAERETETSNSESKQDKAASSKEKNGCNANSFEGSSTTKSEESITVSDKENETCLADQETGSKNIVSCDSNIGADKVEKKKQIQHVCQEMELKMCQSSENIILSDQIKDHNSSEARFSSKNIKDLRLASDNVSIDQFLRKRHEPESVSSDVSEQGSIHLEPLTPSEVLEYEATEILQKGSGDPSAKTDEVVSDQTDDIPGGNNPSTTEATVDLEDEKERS
UniProt Q8IYB9: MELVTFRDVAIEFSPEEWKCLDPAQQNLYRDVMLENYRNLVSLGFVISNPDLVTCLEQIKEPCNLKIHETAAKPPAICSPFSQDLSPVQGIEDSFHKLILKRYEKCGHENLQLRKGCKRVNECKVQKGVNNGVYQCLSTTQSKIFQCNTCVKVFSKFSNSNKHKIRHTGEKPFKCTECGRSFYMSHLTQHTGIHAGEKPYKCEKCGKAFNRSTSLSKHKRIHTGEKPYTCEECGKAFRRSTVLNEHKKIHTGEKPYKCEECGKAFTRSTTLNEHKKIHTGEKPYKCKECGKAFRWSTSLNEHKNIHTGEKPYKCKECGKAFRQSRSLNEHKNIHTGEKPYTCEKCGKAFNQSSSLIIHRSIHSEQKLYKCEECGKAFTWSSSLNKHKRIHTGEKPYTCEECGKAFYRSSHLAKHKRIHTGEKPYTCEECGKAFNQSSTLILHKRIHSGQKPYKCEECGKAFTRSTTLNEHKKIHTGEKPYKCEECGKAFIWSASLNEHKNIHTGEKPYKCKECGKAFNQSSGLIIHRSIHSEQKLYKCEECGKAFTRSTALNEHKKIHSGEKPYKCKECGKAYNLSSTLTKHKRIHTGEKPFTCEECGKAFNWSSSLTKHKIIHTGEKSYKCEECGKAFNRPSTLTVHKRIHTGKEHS
UniProt Q9UDW3: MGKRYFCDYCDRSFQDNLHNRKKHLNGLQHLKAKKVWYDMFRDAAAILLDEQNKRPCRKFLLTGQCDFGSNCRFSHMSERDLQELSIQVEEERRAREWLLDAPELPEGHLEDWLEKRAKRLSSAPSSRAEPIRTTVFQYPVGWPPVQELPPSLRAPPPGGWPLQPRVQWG
UniProt Q6NUN9: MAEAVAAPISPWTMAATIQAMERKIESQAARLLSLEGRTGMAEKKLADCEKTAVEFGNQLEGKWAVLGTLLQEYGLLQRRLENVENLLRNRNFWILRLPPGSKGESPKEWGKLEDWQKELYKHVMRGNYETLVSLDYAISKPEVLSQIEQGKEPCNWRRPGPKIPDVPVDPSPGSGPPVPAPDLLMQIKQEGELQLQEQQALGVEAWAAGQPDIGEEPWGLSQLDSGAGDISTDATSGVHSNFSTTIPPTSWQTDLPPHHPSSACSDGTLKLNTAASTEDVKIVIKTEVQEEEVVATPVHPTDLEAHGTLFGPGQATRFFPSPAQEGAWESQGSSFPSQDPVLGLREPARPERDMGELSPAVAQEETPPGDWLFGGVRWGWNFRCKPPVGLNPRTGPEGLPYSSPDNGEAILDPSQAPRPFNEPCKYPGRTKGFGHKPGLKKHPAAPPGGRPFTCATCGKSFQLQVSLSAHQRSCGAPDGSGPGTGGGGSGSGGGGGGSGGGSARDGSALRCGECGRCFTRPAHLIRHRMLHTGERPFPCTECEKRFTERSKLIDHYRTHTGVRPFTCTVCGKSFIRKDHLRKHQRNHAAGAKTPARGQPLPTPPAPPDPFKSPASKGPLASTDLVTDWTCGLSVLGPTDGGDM
UniProt Q16670: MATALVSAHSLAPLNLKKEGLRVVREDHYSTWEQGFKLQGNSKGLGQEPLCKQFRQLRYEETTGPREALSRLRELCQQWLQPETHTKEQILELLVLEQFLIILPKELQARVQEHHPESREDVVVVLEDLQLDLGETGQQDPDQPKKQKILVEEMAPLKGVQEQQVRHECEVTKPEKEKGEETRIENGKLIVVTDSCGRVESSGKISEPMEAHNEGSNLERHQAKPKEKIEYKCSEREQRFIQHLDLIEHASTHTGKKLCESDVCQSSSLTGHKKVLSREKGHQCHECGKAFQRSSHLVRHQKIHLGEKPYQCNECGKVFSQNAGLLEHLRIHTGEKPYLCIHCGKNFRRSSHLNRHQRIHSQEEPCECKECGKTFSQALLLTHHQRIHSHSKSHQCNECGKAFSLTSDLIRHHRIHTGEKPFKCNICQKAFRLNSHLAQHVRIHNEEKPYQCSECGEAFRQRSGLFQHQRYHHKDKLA
UniProt Q15935: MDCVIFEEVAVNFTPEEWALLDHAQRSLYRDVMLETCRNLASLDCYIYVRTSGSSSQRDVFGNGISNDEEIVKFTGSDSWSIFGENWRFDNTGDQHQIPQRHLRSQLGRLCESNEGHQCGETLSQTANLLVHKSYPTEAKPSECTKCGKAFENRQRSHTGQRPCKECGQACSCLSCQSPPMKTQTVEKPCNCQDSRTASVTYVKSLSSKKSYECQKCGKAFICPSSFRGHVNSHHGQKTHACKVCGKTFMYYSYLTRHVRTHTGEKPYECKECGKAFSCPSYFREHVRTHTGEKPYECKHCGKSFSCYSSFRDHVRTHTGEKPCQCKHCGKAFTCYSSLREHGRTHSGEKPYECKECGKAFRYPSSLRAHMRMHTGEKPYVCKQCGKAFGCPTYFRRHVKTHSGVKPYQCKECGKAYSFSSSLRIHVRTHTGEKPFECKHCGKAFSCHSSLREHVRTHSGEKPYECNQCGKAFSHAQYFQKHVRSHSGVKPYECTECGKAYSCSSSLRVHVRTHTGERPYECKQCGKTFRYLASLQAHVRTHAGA

Columns and labels:
Assay in all cases: log2 fold change, soluble protein after heating vs DMSO (PISA); higher = thermal stabilisation; K562 lysate, 10 uM; active = over 0.2 and 3.5 SD of the protein, either way, in both replicates (recomputed)
alvocidib = compound: CN1CC[C@H](c2c(O)cc(O)c3c(=O)cc(-c4ccccc4Cl)oc23)[C@H](O)C1 [alvocidib]
In short: (§1)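 To prepare the extract, K562 pellets were dounce-homogenised in PBS pH 7.4 with 1 mM MgCl2, giving crude material at 1 mg/mL protein. This was treated with 10 μM compound for 30 min, then heated in aliquots for 3 min over 48°C-58°C before pooling and addition of NP-40 to 0.5% at 4°C. Centrifugation at 21,000xg for 90 min left soluble protein in the supernatant, which TMTpro 16plex LC-MS/MS quantified with equalised channel sums. Results are log-two fold changes in thermal stability compared with solvent controls, from duplicates.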

defactinib = compound: CNC(=O)c1ccc(Nc2ncc(C(F)(F)F)c(NCc3nccnc3N(C)S(C)(=O)=O)n2)cc1 [defactinib]
In short: as §1

[1] = compound: C[C@H](C1=CC=C(C=C1)C(=O)NC2=C3C=CNC3=NC=C2)N
In short: as §1

gandotinib = compound: Cc1cc(Nc2cc(CN3CCOCC3)c3nc(C)c(Cc4ccc(Cl)cc4F)n3n2)n[nH]1 [gandotinib]
In short: as §1

[2] = compound: Cc1cccc(CC(=O)N2CCc3c2ccc(-c2cn(C)c4ncnc(N)c24)c3F)n1
In short: as §1

[3] = compound: CNC(=O)C1=CC=CC=C1NC2=NC(=NC=C2Cl)NC3=C(C=C(C=C3)N4CCOCC4)OC
In short: as §1

alisertib = compound: COc1cc(Nc2ncc3c(n2)-c2ccc(Cl)cc2C(c2c(F)cccc2OC)=NC3)ccc1C(=O)O [alisertib]
In short: as §1

gefitinib = compound: COc1cc2ncnc(Nc3ccc(F)c(Cl)c3)c2cc1OCCCN1CCOCC1 [gefitinib]
In short: as §1

pictilisib = compound: CS(=O)(=O)N1CCN(Cc2cc3nc(-c4cccc5[nH]ncc45)nc(N4CCOCC4)c3s2)CC1 [pictilisib]
In short: as §1

crizotinib = compound: C[C@@H](Oc1cc(-c2cnn(C3CCNCC3)c2)cnc1N)c1c(Cl)ccc(F)c1Cl [crizotinib]
In short: as §1

doramapimod = compound: Cc1ccc(-n2nc(C(C)(C)C)cc2NC(=O)Nc2ccc(OCCN3CCOCC3)c3ccccc23)cc1 [doramapimod]
In short: as §1

bafetinib = compound: Cc1ccc(NC(=O)c2ccc(CN3CC[C@H](N(C)C)C3)c(C(F)(F)F)c2)cc1Nc1nccc(-c2cncnc2)n1 [bafetinib]
In short: as §1

Tubastatin A = compound: CN1CCc2c(c3ccccc3n2Cc2ccc(C(=O)NO)cc2)C1 [Tubastatin A]
In short: as §1

[4] = compound: CNc1nc(-c2ccc3c(N)n[nH]c3c2)cc(N2C[C@@H](C(=O)NC3CCCCC3)CC[C@H]2C)n1
In short: as §1

encorafenib = compound: COC(=O)N[C@@H](C)CNc1nccc(-c2cn(C(C)C)nc2-c2cc(Cl)cc(NS(C)(=O)=O)c2F)n1 [encorafenib]
In short: as §1

[5] = compound: COC(=O)[C@H](CCSC)NC(=O)C1=C(C=C(C=C1)NC[C@H](CS)N)C2=CC=CC=C2
In short: as §1

[6] = compound: COc1cc2nc(-c3cc(F)ccc3O)nc(N[C@@H]3CNC[C@H]3C(C)(C)O)c2cc1OC
In short: as §1

lapatinib = compound: CS(=O)(=O)CCNCc1ccc(-c2ccc3ncnc(Nc4ccc(OCc5cccc(F)c5)c(Cl)c4)c3c2)o1 [lapatinib]
In short: as §1

duvelisib = compound: C[C@H](Nc1ncnc2nc[nH]c12)c1cc2cccc(Cl)c2c(=O)n1-c1ccccc1 [duvelisib]
In short: as §1

tozasertib = compound: Cc1cc(Nc2cc(N3CCN(C)CC3)nc(Sc3ccc(NC(=O)C4CC4)cc3)n2)n[nH]1 [tozasertib]
In short: as §1

Measured: log2 fold change

ZNF655 isoform 2 (UniProt Q8N720)
inactive: alvocidib 0.02 | defactinib 0.061 | [1] -0.09 | gandotinib -0.157 | [2] -0.046

ZNF280B (UniProt Q86YH2)
inactive: alvocidib -0.065 | [3] -0.023 | defactinib -0.066 | alisertib -0.006 | gefitinib 0.091 | pictilisib 0.111 | crizotinib 0.013 | [1] -0.079 | gandotinib 0.066 | doramapimod 0.06 | bafetinib -0.073 | [2] -0.181

ZNF93 (UniProt P35789)
inactive: Tubastatin A -0.149 | [3] -0.024 | defactinib -0.025 | [4] 0.089 | encorafenib -0.006 | [5] -0.034 | alisertib -0.106 | [6] -0.053 | gefitinib 0.337 | lapatinib -0.005 | crizotinib -0.005 | duvelisib -0.082 | tozasertib 0.072 | doramapimod 0.015

ZKSCAN4 (UniProt Q969J2)
inactive: Tubastatin A -0.127 | [3] 0.053 | defactinib 0.022 | [6] -0.151 | lapatinib 0.109 | crizotinib -0.047 | doramapimod 0.075

ZNHIT1 (UniProt O43257)
inactive: Tubastatin A 0.182 | [3] 0.087 | encorafenib 0.308 | [5] -0.283 | alisertib -0.05 | gefitinib -0.009 | pictilisib 0.002 | tozasertib -0.15 | bafetinib -0.073

ZNF280A (UniProt P59817)
inactive: Tubastatin A -0.089 | [3] 0.041 | [4] 0.045 | alisertib 0.085 | gefitinib -0.054 | crizotinib -0.108 | duvelisib 0.083 | doramapimod 0.337

ZNF813 (UniProt Q6ZN06)
inactive: alvocidib 0.335 | [4] -0.072 | alisertib 0.022 | gefitinib 0.038 | [1] 0.413 | duvelisib 0.008 | gandotinib -0.287 | [2] -0.078

ZNF627 (UniProt Q7L945)
inactive: alvocidib -0.01 | [3] 0.265 | pictilisib -0.019 | crizotinib 0.128 | [1] -0.001 | gandotinib 0.023 | doramapimod 0.119 | bafetinib 0.008 | [2] -0.054

ZKSCAN8 (UniProt Q15776)
inactive: Tubastatin A -0.053 | [3] 0.059 | defactinib 0.037 | [4] 0.009 | encorafenib 0.2 | [5] -0.206 | alisertib -0.084 | [6] -0.001 | gefitinib 0 | lapatinib 0.08 | crizotinib -0.151 | duvelisib 0.068 | tozasertib -0.014 | doramapimod 0.082

ZNF771 (UniProt Q7L3S4)
inactive: alvocidib -0.03 | [3] 0.075 | [6] -0.007 | lapatinib 0.03 | pictilisib -0.083 | [1] 0.057 | gandotinib -0.051 | bafetinib -0.033 | [2] -0.01

ZNF48 (UniProt Q96MX3)
inactive: alvocidib 0.053 | encorafenib 0.08 | [5] -0.196 | [6] 0.007 | lapatinib -0.094 | [1] -0.191 | gandotinib 0.129 | tozasertib 0.005 | [2] -0.101

ZNF280D (UniProt Q6N043)
inactive: alvocidib 0.013 | Tubastatin A -0.146 | [6] -0.099 | lapatinib -0.249 | [1] 0.007 | gandotinib -0.009 | [2] -0.028

ZNF445 (UniProt P59923)
inactive: Tubastatin A 0.055 | [3] 0.334 | defactinib 0.091 | [4] -0.038 | pictilisib -0.091 | duvelisib 0.037 | bafetinib -0.188

ZGRF1 (UniProt Q86YA3)
inactive: alvocidib 0.453 | Tubastatin A -0.028 | [4] 0.031 | encorafenib -0.039 | [5] -0.009 | crizotinib -0.011 | [1] -0.159 | duvelisib 0.015 | gandotinib 0.314 | tozasertib 0.007 | doramapimod -0.002 | [2] -0.188

ZNF687 (UniProt Q8N1G0)
inactive: Tubastatin A -0.171 | [3] 0.016 | [4] -0.084 | encorafenib 0.122 | [5] 0.035 | alisertib 0.044 | [6] -0.125 | gefitinib 0.039 | lapatinib -0.115 | crizotinib -0.097 | duvelisib -0.004 | tozasertib 0.038 | doramapimod 0.08

2 entries drawn at random from the list so far, as already listed:
ZNF280D (UniProt Q6N043)
inactive: alvocidib 0.013 | Tubastatin A -0.146 | [6] -0.099 | lapatinib -0.249 | [1] 0.007 | gandotinib -0.009 | [2] -0.028

ZNF48 (UniProt Q96MX3)
inactive: alvocidib 0.053 | encorafenib 0.08 | [5] -0.196 | [6] 0.007 | lapatinib -0.094 | [1] -0.191 | gandotinib 0.129 | tozasertib 0.005 | [2] -0.101

Carrying on:

ZNF225 (UniProt Q9UK10)
inactive: Tubastatin A 0.282 | [3] -0.088 | defactinib -0.172 | [4] 0.735 | encorafenib -0.023 | [5] 0.042 | pictilisib -0.066 | duvelisib 0.011 | tozasertib -0.18 | bafetinib -0.269

ZNF286A (UniProt Q9HBT8)
inactive: alvocidib -0.017 | [1] -0.004 | gandotinib 0.002 | [2] -0.107

ZNF385A (UniProt Q96PM9)
inactive: Tubastatin A -0.1 | [3] 0.27 | alisertib -0.014 | gefitinib 0.007 | pictilisib 0.067 | crizotinib 0.033 | doramapimod 0.096 | bafetinib -0.044

ZMIZ2 (UniProt Q8NF64)
inactive: alvocidib 0.067 | [3] 0.044 | defactinib -0.04 | [4] 0.046 | encorafenib 0.028 | [5] -0.011 | alisertib 0.01 | [6] 0.116 | gefitinib 0.045 | lapatinib -0.099 | pictilisib -0.014 | crizotinib 0 | [1] -0.083 | duvelisib 0.005 | gandotinib -0.058 | tozasertib 0.063 | doramapimod 0.064 | bafetinib 0.025 | [2] 0.05

ZNF101 (UniProt Q8IZC7)
inactive: Tubastatin A -0.045 | [3] -0.03 | [4] 0.033 | [6] 0 | lapatinib 0.054 | crizotinib -0.085 | duvelisib 0.075 | doramapimod -0.127

ZNF618 (UniProt B1ALC2)
inactive: alvocidib -0.059 | defactinib 0.068 | [4] 0.031 | encorafenib 0.012 | [5] -0.028 | alisertib -0.027 | [6] -0.019 | gefitinib -0.038 | lapatinib -0.013 | crizotinib -0.055 | [1] -0.06 | duvelisib -0.01 | gandotinib -0.017 | tozasertib -0.055 | doramapimod 0.076 | [2] 0.13

ZNF595 (UniProt Q8IYB9)
inactive: alvocidib 0.247 | Tubastatin A -0.274 | defactinib 0.005 | encorafenib -0.024 | [5] -0.027 | crizotinib 0.046 | [1] -0.146 | gandotinib 0.112 | tozasertib 0.029 | doramapimod 0.09 | [2] 0.215

ZSCAN21 (UniProt Q9Y5A6)
inactive: alvocidib -0.11 | encorafenib 0.031 | [5] 0.103 | [1] -0.131 | gandotinib -0.108 | tozasertib -0.001 | [2] 0.068

ZMAT5 (UniProt Q9UDW3)
inactive: [3] 0.111

ZNF280A, A0A0G2JN84
inactive: crizotinib -0.049 | doramapimod 0.241

ZNF146 (UniProt Q15072)
inactive: [4] 0.12 | duvelisib -0.018

ZNF746 isoform 2 (UniProt Q6NUN9)
inactive: Tubastatin A -0.137 | alisertib -0.183 | gefitinib 0.221

ZNF552 (UniProt Q9H707)
inactive: alisertib -0.059 | gefitinib -0.106

ZSCAN25 (UniProt Q6NSZ9)
inactive: [3] -0.052 | [4] 0.066 | duvelisib -0.105

ZNF460 (UniProt Q14592)
inactive: defactinib -0.129 | encorafenib 0.092 | [5] -0.023 | pictilisib -0.124 | tozasertib 0.079 | bafetinib -0.13

ZSCAN26 (UniProt Q16670)
inactive: crizotinib -0.025 | doramapimod 0.102

ZNF77 (UniProt Q15935)
inactive: defactinib -0.034 | encorafenib 0.094 | [5] 0.226 | tozasertib -0.223

ZNF655 isoform 3 (UniProt Q8N720)
inactive: encorafenib -0.015 | [5] 0.059 | crizotinib -0.285 | tozasertib -0.11 | doramapimod 0.052
